B1: immunoproteasome catalytic subunit β1i (protein, UniProt P28065 21-219)
chain: TTIMAVEFDGGVVMGSDSRVSAGEAVVNRVFDKLSPLHERIYCALSGSAADAQAVADMAAYQLELHGIELEEPPLVLAAANVVRNISYKYREDLSAHLMVAGWDQREGGQVYGTLGGMLTRQPFAIGGSGSTFIYGYVDAAYKPGMSPEECRRFTTDAIALAMSRDGSSGGVIYLVTITAAGVDHRVILGNELPKFYDE
B2: immunoproteasome catalytic subunit β5i (protein, UniProt P28062 73-276)
chain: TTTLAFKFQHGVIAAVDSRASAGSYISALRVNKVIEINPYLLGTMSGCAADCQYWERLLAKECRLYYLRNGERISVSAASKLLSNMMCQYRGMGLSMGSMICGWDKKGPGLYYVDEHGTRLSGNMFSTGSGNTYAYGVMDSGYRPNLSPEEAYDLGRRAIAYATHRDSYSGGVVNMYHMKEDGWVKVESTDVSDLLHQYREANQ
B3: immunoproteasome catalytic subunit β2i (protein, UniProt P40306 40-273)
chain: TTIAGLVFQDGVILGADTRATNDSVVADKSCEKIHFIAPKIYCCGAGVAADAEMTTRMVASKMELHALSTGREPRVATVTRILRQTLFRYQGHVGASLIVGGVDLTGPQLYGVHPHGSYSRLPFTALGSGQDAALAVLEDRFQPNMTLEAAQGLLVEAVTAGILGDLGSGGNVDACVITKTGAKLLRTLSSPTEPVKRSGRYHFVPGTTAVLTQTVKPLTLELVEETVQAMEVE

By UniProt entry, the sequences of proteins in these tests, tags left out. Where a name states a change or a piece, a line headed by the entry shows the natural chain unless it says otherwise.
UniProt P28070: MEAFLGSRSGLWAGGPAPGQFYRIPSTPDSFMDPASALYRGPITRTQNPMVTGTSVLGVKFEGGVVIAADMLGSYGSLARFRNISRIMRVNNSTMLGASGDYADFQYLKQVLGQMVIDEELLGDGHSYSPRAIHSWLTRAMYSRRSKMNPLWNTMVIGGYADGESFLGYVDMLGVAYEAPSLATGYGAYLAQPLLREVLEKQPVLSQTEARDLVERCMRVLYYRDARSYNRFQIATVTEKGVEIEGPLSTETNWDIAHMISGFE

These are yes or no findings as the source states them, for the method shown. In cells and extracts the contact can be indirect. A result given as binding can be weak or reduced; the word gives no strength.

In the test the target is HTBH-tagged proteasome subunit β7 (PSMB4) (human) (UniProt P28070). Kind of test: pull-down.
As for B1, the binding result is reported as “binds”.
Turning to B2, the binding entry was “binds”.
On to B3, for which the binding result is on record as “binds”.
